Assay results from PMC10112521, “High-throughput AR dimerization assay identifies androgen disrupting chemicals and metabolites” (Frontiers in Toxicology, 2023).

Test system: AR2 cells (HepG2-AR2)
Experiment: Alamar Blue (resazurin) post hoc cell viability / cytotoxicity assay in AR2 cells
Conditions: spid Viability; sheet antagonist_fits; 0 where win_model is Constant

Abamectin
hill_gw (Hill model slope): 0.9681
